Test results reported in PubChem BioAssay AID504834 (National Center for Advancing Translational Sciences (NCATS), 2011).
Out of some 320,000 compounds screened, about 22,000 (6.9%) were called active. Inconclusive results, whose numbers are uncertain, are shown with a selection of clear calls. Calls follow the shape of the dose curve; as a rule, active = well fitted inhibition curve with a large enough effect; inconclusive = small, poorly fitted or top-dose-only effect, or another doubt; inactive = no such curve, though single readings can be large or run the other way. Potencies of inconclusive entries are doubtful fits and often do not repeat.

experiment: Primary qHTS for delayed death inhibitors of the malarial parasite plastid, 96 hour incubation; conditions: P. falciparum luciferase reporter growth; series mostly up to 28.7 µM
How it was run: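 P. falciparum expressing integrated firefly luciferase grown in erythrocytes (2% hematocrit, 0.05% parasitemia final) with compounds for 96 hours at 37 C, 5% CO2. Growth inhibition read as loss of luminescence after adding luciferase detection reagent.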
Potency is read from the fitted curve at half-maximal effect.

Structure (SMILES)	Potency
Oc1ccccc1-c1cncn1Cc1ccccc1	active: 14.7 µM
CCOC(=O)c1cc2ccc(OC)cc2oc1=O	inactive
Cc1c(C(=O)N/N=C/c2ccccc2)[nH]c2ccc(Cl)cc12	inconclusive: 18.5 µM [inhibitor, single point]
O=c1[nH]c(=O)n(Cc2ccco2)c2c1C(C(F)(F)F)(C(F)(F)F)N=C(CCC1CCCCC1)N2	inconclusive: 5.86 µM [inhibitor, partial curve]
COc1ccc(NC(=O)c2oc3ccccc3c2NC(=O)c2ccco2)c(OC)c1	inconclusive: 2.62 µM [inhibitor, partial curve, poor fit]
Cc1cc(C)n(-c2nnc(NCc3ccc(Cl)cc3)nn2)n1	active: 2.08 µM
O=C(NNC(=O)C1CCCCC1)c1ccco1	inconclusive: 18.5 µM [inhibitor, single point]
CSCC[C@H](NC(=O)OC(C)(C)C)c1nnc(SCC(=O)Nc2c(C)cccc2C)o1	inconclusive: 9.28 µM [inhibitor, partial curve]
COC(=O)[C@]1(CC(C)C)N[C@H](c2ccc(SC3CCCCC3)c(OC)c2)[C@@H]2C(=O)N(C)C(=O)[C@@H]21	active: 8.28 µM
COC(=O)C1=C(C)N(CCc2cc(OC)c(OC)c(OC)c2)C(=O)N[C@H]1c1ccc(Br)cc1	active: 10.4 µM
CCCCN(CCCC)/C(N)=N/c1nc(C)cc(C)n1	inconclusive: 4.15 µM [inhibitor, partial curve]
CN(C)c1ccc(/C=C(\C#N)C(=O)OCC(=O)N(C)C2CCS(=O)(=O)C2)cc1 (configuration not stated)	inactive
Cc1ccc(Cl)c(NC(=S)N(CCCN2CCOCC2)Cc2ccco2)c1	inconclusive: 1.47 µM [inhibitor, full curve, poor fit]
CCOc1cc(/C=C(\C#N)C(=O)NCc2cccnc2)ccc1O	inactive
COc1ccc(-c2cnc3c(c2)CCC3(C#N)C#N)cc1	inactive
CCc1ccccc1N(C)S(=O)(=O)c1cc(-c2cc(C)no2)ccc1OC	inconclusive: 4.15 µM [inhibitor, partial curve, poor fit]
CCC(=O)N1CCc2cc(Br)cc(S(=O)(=O)NCCN3CCCC3)c21	inactive
NC(=O)c1ccccc1OCC(=O)NC12CC3CC(CC(C3)C1)C2	inconclusive: 18.5 µM [inhibitor, single point]
CC(=O)Nc1ccc(N2S(=O)(=O)c3ccccc3S2(=O)=O)cc1	active: 11.7 µM
CS(=O)(=O)c1ccccc1-c1nnc(NC(=O)c2ccco2)o1	inconclusive: 1.85 µM [inhibitor, partial curve, poor fit]
CSc1ccccc1C(=O)NCCCn1ccnc1	inactive
CCOC(=O)c1cc(NCc2cccs2)ccc1N1CCOCC1	active: 1.47 µM
NS(=O)(=O)c1ccc(N/N=C/c2ccc(O)cc2O)c([N+](=O)[O-])c1	inconclusive: 13.1 µM [inhibitor, single point]
COC(=O)CSc1nnc(-c2sc3ccccc3c2Cl)o1	inconclusive: 0.0657 µM [inhibitor, full curve, poor fit]

Structure (SMILES)	Potency
COc1cccc(N2C(=O)CN(Cc3ccccc3)C2=S)c1	active: 1.31 µM
Cc1cccc(C(=O)N(CC(=O)Nc2sc(C)c(C)c2C(N)=O)C2CCCC2)c1	inconclusive: 5.22 µM [inhibitor, partial curve]
Cc1nn(-c2ccccc2)c(Cl)c1/C=C/C(=O)c1ccc(O)cc1	inconclusive: 4.65 µM [inhibitor, partial curve]
Cc1c(CCC(=O)N2CCC(C(=O)O)(c3ccccc3)CC2)c(=O)oc2cc3oc4c(c3cc12)CCCC4	inconclusive: 18.5 µM [inhibitor, single point]
Cc1cccc(-n2ncc3c(NCCc4ccc(S(N)(=O)=O)cc4)ncnc32)c1	active: 10.4 µM
NC(=O)N1c2ccccc2C=Cc2ccccc21	inconclusive: 5.86 µM [inhibitor, single point]
CCc1ccccc1N(C(=O)c1cccs1)C1C=CS(=O)(=O)C1 (configuration not stated)	inconclusive: 4.15 µM [inhibitor, partial curve, poor fit]
CN1CCN(C(=O)CN(C2CCCCC2)S(=O)(=O)c2ccc(Br)cc2)CC1	inactive
Cc1ccc(-c2ccc(=O)[nH]n2)cc1	inactive
O=C(O/N=C(\c1ccccc1)c1ccccn1)c1ccc(Cl)c(Cl)c1	inconclusive: 16.5 µM [inhibitor, single point]
Cc1ccc(Cn2c(=N)c(C(=O)NCC3CCCO3)cc3c(=O)n4ccccc4nc32)cc1 (configuration not stated)	inconclusive: 11.7 µM [inhibitor, partial curve, poor fit]
COc1ccc(N2CCN(C(=O)CSc3ncccc3-c3nc4ccccc4[nH]3)CC2)cc1	inconclusive: 14.7 µM [inhibitor, single point]
CCN(CC)CCNCc1cc(Cl)c(OCC(=O)Nc2ccccc2)c(OC)c1	inconclusive: 2.33 µM [inhibitor, full curve]
O=C(Nc1cc(C(F)(F)F)ccc1Cl)c1cc(C2CC2)on1	inactive
Cc1ccc2nc(-c3ccc(NS(C)(=O)=O)cc3)cc(-c3ccccc3)c2c1	inconclusive: 13.1 µM [inhibitor, partial curve]
Cc1ccc(C2/C(=C(/O)c3ccc(Cl)cc3)C(=O)C(=O)N2CC2CCCO2)o1 (configuration not stated)	inconclusive: 0.522 µM [inhibitor, partial curve, poor fit]
COc1ccc(CC(C(=O)Nc2ccc(OC)cc2)c2nn[nH]n2)cc1 (configuration not stated)	inconclusive: 11.7 µM [inhibitor, partial curve, poor fit]
Cn1nnnc1SCC(=O)Nc1ccccc1N1CCCCC1	inactive
CCN(CC)C(=O)C1=C(C)Nc2nc3ccccc3n2C1c1cccc(OC)c1 (configuration not stated)	inconclusive: 18.5 µM [inhibitor, single point]
CC(NC(=O)c1ccc(S(=O)(=O)N(C)C)cc1)c1ccc(-n2ccnc2)cc1 (configuration not stated)	inactive
Cn1cccc1CC(=O)NNC(=S)NC(=O)c1ccccc1Br	inconclusive: 13.1 µM [inhibitor, single point]
CCOC(=O)Cn1ccc(NC(=O)COc2ccc(F)cc2)n1	inconclusive: 10.4 µM [inhibitor, partial curve, poor fit]
O=C(OCC#CCSc1nnc(-c2cccc3ccccc23)o1)c1cccc2[nH]ccc12	inactive
CCCCN1Cc2cc(C(=O)c3cc(OC)ccc3O)cnc2NC1=O	active: 9.28 µM

Structure (SMILES)	Potency
Cc1ccc(S(=O)(=O)N(C)c2ccc(C(=O)NCc3cccnc3)cc2)cc1	inconclusive: 8.28 µM [inhibitor, partial curve, poor fit]
Cc1ccc2c(c1)C=CC(C)(C)S2(=O)=O	inactive
CCOC(=O)c1c(C)[nH]c(C(=O)COC(=O)c2ccc(O)cc2O)c1C	inactive
CC(C)(C)OC(=O)NCC12C=CC(O1)C1C(=O)N(Cc3ccccc3)C(=O)C12 (configuration not stated)	inactive
Cc1ccc(C(=O)NCC(=O)NCC(c2ccco2)N2CCCCC2)cc1C (configuration not stated)	inconclusive: 2.08 µM [inhibitor, partial curve, poor fit]
Cc1ccc(C(=O)N2CC=C(c3ccccc3)CC2)s1	inactive
O=C(Oc1ccc(F)cc1)N1CCOCC1	inactive
Cc1cc(-c2csc(N)n2)c(C)n1-c1ccccc1	inconclusive: 18.5 µM [inhibitor, single point]
NC(=O)CCCn1c(C(=O)c2ccc(Cl)cc2)c2ccc(C(F)(F)F)cc2[n+]1[O-]	inconclusive: 7.38 µM [inhibitor, partial curve, poor fit]
O=C(O)c1cccc(NC(=O)C23CC4CC(C2)CC(n2cnc(Cl)n2)(C4)C3)c1	inconclusive: 2.94 µM [inhibitor, partial curve]
CCOc1ccccc1N1CSC2=C(C#N)C(c3c(OC)ccc4ccccc34)CC(=O)N2C1 (configuration not stated)	inconclusive: 10.4 µM [inhibitor, single point]
COc1ccc(-c2nnc3sc(-c4cccs4)nn23)cc1OC	active: 11.7 µM
Cc1ccc(S(=O)(=O)CCC(=O)Nc2nc(-c3ccccn3)cs2)cc1	active: 10.4 µM
COCCNC(=S)N1CCN(c2nc3ccccc3s2)CC1	inactive
CCOC(=O)C(C)Sc1nnc(NC(=O)c2ccc(C)c([N+](=O)[O-])c2)s1 (configuration not stated)	active: 14.7 µM
O=S(=O)([N-]c1nc2ccccc2nc1-n1cc[n+](Cc2ccccc2)c1)c1ccc(Cl)cc1	inconclusive: 0.0262 µM [inhibitor, full curve, poor fit]
COc1ccc(C(CNC(=O)c2ccc(-n3cnnn3)cc2)N2CCOCC2)cc1 (configuration not stated)	inconclusive: 11.7 µM [inhibitor, single point]
Cc1ccc2ccccc2c1NC(=O)c1ccco1	inactive
COc1ccc(S(=O)(=O)Nc2ccc(NC(C)=O)cc2)cc1OC	inconclusive: 4.15 µM [inhibitor, single point]
COc1ccc(C(=O)NC2CCCc3ccccc32)cc1 (configuration not stated)	inconclusive: 18.5 µM [inhibitor, single point]
CCN(CC)S(=O)(=O)c1ccc(N2CCCC2)c(NC(=O)c2ccccc2OC)c1	active: 10.4 µM
Cc1ccc(Nc2ncccc2C(=O)NCc2cccs2)c(C)c1	inconclusive: 0.0131 µM [inhibitor, full curve]
N#C/C(=C\c1ccc[nH]1)C(=O)N1CCCCC1	inactive
Cc1nnc(NC(=O)CSc2ccc(-c3cccnc3)nn2)s1	inconclusive: 18.5 µM [inhibitor, single point]
